# System: ILA1 TCR
# Conditions: simultaneous non-linear least-squares fit
compound,measurement,value
"Cc1nc(Nc2ncc(C(=O)Nc3c(C)cccc3Cl)s2)cc(N2CCN(CCO)CC2)n1 [dasatinib, N-(2-chloro-6-methyl-phenyl)-2-(6-(4-(2-hydroxyethyl)-piperazin-1-yl)-2-methylpyrimidin-4-ylamino)thiazole-5-carboxamide]",duplet recruitment enhancement factor δD,6.53±2.93
same,triplet recruitment enhancement factor δT,13.7±7.38

# From patent publication US9404916B2, “Use of a protein kinase inhibitor to detect immune cells, such as T cells” (University College Cardiff Consultants Limited, priority 2008, dated 2016)
